Data from patent US20080287398A1, “COLD MENTHOL RECEPTOR-1 ANTAGONISTS” (priority 2007, published 2008).
Values joined by “and” are separate entries in the source; they are usually repeats but may differ in a detail not shown here. Equal entries are not always repeated. At least one read-out could not be matched to a standard name with certainty.

Amino acid sequences for entries named in this document (tags omitted). Residues count along the entry.
UniProt Q1A7N1, 1-1104: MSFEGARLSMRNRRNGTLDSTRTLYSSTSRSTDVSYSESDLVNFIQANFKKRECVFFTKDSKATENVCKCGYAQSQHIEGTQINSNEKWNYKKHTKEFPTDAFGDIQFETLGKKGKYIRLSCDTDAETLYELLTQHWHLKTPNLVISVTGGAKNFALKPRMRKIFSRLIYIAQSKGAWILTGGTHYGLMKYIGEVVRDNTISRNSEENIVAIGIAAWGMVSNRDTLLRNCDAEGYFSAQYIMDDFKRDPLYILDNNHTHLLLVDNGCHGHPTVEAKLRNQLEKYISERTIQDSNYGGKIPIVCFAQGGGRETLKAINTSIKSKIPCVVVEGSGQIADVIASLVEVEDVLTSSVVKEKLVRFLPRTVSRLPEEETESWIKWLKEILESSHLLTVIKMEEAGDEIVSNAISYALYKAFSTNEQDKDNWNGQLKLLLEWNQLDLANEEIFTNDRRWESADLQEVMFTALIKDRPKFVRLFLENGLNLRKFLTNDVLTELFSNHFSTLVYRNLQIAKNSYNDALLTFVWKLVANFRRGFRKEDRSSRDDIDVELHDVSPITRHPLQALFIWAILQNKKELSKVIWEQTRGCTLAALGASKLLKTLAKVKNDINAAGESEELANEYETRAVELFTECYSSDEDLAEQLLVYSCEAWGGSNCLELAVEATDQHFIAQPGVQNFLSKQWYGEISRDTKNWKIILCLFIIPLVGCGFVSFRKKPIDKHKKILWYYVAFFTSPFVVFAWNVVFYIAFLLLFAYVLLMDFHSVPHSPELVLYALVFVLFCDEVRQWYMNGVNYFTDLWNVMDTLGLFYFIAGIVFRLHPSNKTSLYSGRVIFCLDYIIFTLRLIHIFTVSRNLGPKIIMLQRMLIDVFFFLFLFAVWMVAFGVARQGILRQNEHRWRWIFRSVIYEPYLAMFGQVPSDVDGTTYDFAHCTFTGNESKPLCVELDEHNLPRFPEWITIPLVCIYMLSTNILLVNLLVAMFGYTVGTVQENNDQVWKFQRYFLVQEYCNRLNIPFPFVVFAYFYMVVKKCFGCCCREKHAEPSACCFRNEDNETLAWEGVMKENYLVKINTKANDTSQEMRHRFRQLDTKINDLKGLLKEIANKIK

Molecular target: T1, canine TRPM8 (Canis lupus familiaris, UniProt Q1A7N1)
T1 construct: expressed in transfected cells
Experiment: In vitro canine TRPM8 functional assay (Ca2+-sensitive dye, FLIPR/FDSS, icilin activation)
Format: cell-based
Details: HEK293 cells expressing canine TRPM8, icilin activation; for % I (0.5 μM): 0.5 μM compound
Procedure: The functional activity of compounds of Formula (I) was determined by measuring changes in intracellular calcium concentration using a Ca^2+-sensitive fluorescent dye. The changes in fluorescent signal were monitored by a fluorescence plate reader, either a FLIPR™ (Molecular Devices) or FDSS (Hamamatsu).
HEK293 cells stably expressing canine TRPM8 were routinely grown as monolayers in Dulbecco's minimum essential medium supplemented with 10% FBS, 1 mM L-glutamine, 100 units/mL penicillin, 100 ug/mL streptomycin and 400 μg/mL G418. Cells were maintained in 5% CO2 at 37° C. At 24 hrs prior to assay, cells were seeded in clear-base poly-D-lysine coated 384-well plates (BD Biosciences, NJ, USA) at a density of 5,000 cells per well in culture medium and grown overnight in 5% CO2 at 37° C. On assay day, growth media was removed and cells were loaded with Calcium 3 Dye (Molecular Devices) for 35 min at 37° C., under 5% CO2 and then for 25 min at room temperature and atmosphere. Subsequently, cells were tested for agonist-induced increases in intracellular Ca^2+ levels using FLIPR™ or FDSS. Cells were challenged with a compound of Formula (I) (at varying concentrations) and intracellular Ca^2+ was measured for 5 min prior to the addition of icilin to all wells to achieve a final concentration which produces approximately an 80% maximal response.
Basal FI was subtracted prior to normalizing data to percent of maximal response. Curves were generated using the average of quadruplicate wells for each data point, were analyzed using nonlinear regression of either sigmoidal dose response or sigmoidal dose response (variable slope). Finally, the EC50 and IC50 values were calculated with the best-fit dose curve determined by GraphPad Prism.

Row | Compound | % I (1 μM) (1 μM compound) [%] | % I (0.5 μM)
1 | CCOP(=O)(OCC)C(Cc1ccc(F)c(F)c1)C1=C(C)c2ccccc2S1(=O)=O (stereo not drawn) [Cpd 88, [2-(3,4-Difluoro-phenyl)-1-(3-methyl-1,1-dioxo-1H-1λ^6-benzo-[b]thiophen-2-yl)-ethyl]-phosphonic acid diethyl ester] | 89 | 
2 | CCOP(=O)(OCC)C(Cc1ccc(OC(F)(F)F)cc1)c1sc2ccccc2c1Br (stereo not drawn) [Cpd 155, [1-(3-Bromo-benzo[b]thiophen-2-yl)-2-(4-trifluoromethoxy-phenyl)-ethyl]-phosphonic acid diethyl ester] |  | 101% and 102%
3 | CCOP(=O)(OCC)C(Cc1ccc(F)c(OC)c1)c1sc2ccccc2c1Br (stereo not drawn) [Cpd 156] |  | 98%
